{"source": "patent US20220049021A1", "binders": {"B1": {"name": "human FLT3-ligand (Δ5 amino acid) human IgG4 (S228P/F234A/L235A/M252Y/S254T/T256E) fusion protein (SEQ ID NO:14) (Fc fusion)", "chain": "TQDCSFQHSPISSDFAVKIRELSDYLLQDYPVTVASNLQDEELCGGLWRLVLAQRWMERLKTVAGSKMQGLLERVNTEIHFVTKCAFQPPPSCLRFVQTNISRLLQETSEQLVALKPWITRQNFSRCLELQCQPDSSTLPPPWSPRPLEATAESKYGPPCPPCPAPEAAGGPSVFLFPPKPKDTLYITREPEVTCVVVDVSQEDPEVQFNWYVDGVEVHNAKTKPREEQFNSTYRVVSVLTVLHQDWLNGKEYKCKVSNKGLPSSIEKTISKAKGQPREPQVYTLPPSQEEMTKNQVSLTCLVKGFYPSDIAVEWESNGQPENNYKTTPPVLDSDGSFFLYSRLTVDKSRWQEGNVFSCSVMHEALHNHYTQKSLSLSLGK"}}, "key": {"[1]": {"target": "biotinylated FcγRI protein (Sino Biological) (human) (UniProt P12314)", "experiment": "AlphaScreen competition with human IgG acceptor beads for biotinylated FcγRI"}, "[2]": {"target": "biotinylated FcγRIIIa (Val176 variant) protein (Sino Biological) (human) (UniProt P08637)", "experiment": "AlphaScreen competition with human IgG acceptor beads for biotinylated FcγRIIIa (Val176 variant)"}}, "note": "No constants are given. Whether binding was seen depends on the method and setting. Tags and fused reporters may be left off the sequences shown."}
{"binder": "B1", "values": [{"measurement": "binding", "setting": "[1]", "result": "no binding (tested: 294 nM (top of the titration))"}, {"measurement": "binding", "setting": "[2]", "result": "no binding (tested: 1176 nM (top of the titration))"}]}
